These are yes or no findings as the source states them, for the method shown. Binding can be weak; no strength is given. Tags and fused reporters may be left off the sequences shown.
Target: T1, SLITRK1 ECD-immunoglobulin Fc domain-fusion protein (SLITRK1-WT-Fc) (human) (UniProt Q96PX8)
T1 sequence: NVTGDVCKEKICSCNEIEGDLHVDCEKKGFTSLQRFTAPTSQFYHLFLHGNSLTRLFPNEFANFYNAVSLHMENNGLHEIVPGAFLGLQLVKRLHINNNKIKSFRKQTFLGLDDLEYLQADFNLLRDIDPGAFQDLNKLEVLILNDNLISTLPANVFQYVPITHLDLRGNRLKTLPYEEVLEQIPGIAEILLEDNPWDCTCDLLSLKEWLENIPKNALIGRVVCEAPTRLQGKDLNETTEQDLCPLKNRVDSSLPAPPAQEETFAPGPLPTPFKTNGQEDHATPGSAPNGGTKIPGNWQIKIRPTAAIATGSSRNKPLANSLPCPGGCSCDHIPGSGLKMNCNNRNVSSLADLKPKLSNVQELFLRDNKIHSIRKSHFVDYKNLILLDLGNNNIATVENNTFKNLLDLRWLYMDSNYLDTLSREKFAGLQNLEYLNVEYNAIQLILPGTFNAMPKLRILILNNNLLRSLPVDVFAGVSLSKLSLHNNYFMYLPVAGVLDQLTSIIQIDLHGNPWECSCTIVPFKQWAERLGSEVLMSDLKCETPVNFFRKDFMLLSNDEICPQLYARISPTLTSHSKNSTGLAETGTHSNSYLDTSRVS
Test: pull-down; 10 pmol SLITRK1 ECD-Fc or IgFc captured on Protein A agarose; 7.5 pmol Neurofascin 155-His added, 1 h at 4 °C; 10 mM HEPES pH 7.4, 2 mM CaCl2, 1 mM MgCl2, 0.1% Triton X-100; blot with anti-His tag antibody; both purified

binding: binds
Substance: human Neurofascin ECD-His6 (8208-NF-050, R&D Systems) (domain or fragment)

From paper PMC9463131, “SLITRK1-mediated noradrenergic projection suppression in the neonatal prefrontal cortex” (Communications Biology, 2022)
